Measured values as given in publication doi:10.1101/2024.11.15.622802.

What was measured:
[1] = target: T1, eGFP-AMSH2 (Arabidopsis AMSH2) (Arabidopsis thaliana) (UniProt Q6NKP9); assay: co-IP
T1 sequence: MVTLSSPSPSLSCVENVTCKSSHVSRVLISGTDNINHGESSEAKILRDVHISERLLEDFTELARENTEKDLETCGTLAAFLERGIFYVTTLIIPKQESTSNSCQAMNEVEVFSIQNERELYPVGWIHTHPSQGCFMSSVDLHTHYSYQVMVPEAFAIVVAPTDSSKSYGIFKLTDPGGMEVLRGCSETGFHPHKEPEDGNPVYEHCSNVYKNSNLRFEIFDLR

[2] = target: T2, eGFP-AMSH3 (Arabidopsis AMSH3) (Arabidopsis thaliana) (UniProt Q5PNU3); assay: co-IP
T2 sequence: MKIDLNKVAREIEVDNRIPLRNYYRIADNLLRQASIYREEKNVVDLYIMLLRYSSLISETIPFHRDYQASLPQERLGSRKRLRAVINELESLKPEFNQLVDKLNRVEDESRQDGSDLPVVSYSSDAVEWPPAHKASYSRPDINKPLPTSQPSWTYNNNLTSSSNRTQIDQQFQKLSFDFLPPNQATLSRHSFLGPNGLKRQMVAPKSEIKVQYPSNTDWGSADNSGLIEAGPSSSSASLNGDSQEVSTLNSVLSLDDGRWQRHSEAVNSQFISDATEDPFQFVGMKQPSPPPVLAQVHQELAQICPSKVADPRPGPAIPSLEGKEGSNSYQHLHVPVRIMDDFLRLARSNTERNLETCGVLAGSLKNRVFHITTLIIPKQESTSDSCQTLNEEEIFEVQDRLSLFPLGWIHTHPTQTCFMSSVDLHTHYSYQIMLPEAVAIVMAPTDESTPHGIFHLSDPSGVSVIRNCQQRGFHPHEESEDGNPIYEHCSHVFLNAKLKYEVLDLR

[3] = target: T3, GST-AMSH1 (Arabidopsis) (Arabidopsis thaliana) (UniProt Q8VYB5); assay: pull-down
T3 sequence: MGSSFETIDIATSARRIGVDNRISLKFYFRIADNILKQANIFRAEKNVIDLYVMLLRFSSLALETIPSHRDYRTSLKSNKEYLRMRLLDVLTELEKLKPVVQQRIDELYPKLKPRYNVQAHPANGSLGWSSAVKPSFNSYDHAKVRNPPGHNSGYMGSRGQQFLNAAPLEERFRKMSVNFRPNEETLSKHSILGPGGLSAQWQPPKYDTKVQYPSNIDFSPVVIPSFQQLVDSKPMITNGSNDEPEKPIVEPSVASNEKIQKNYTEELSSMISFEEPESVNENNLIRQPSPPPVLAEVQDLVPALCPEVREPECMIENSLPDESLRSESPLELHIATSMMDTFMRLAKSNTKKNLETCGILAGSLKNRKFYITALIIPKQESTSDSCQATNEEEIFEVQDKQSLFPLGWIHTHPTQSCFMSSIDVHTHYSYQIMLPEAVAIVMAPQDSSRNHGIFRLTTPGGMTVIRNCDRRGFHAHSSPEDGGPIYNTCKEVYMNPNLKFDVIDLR

[4] = target: T4, GST-AMSH2 (Arabidopsis) (Arabidopsis thaliana) (UniProt Q6NKP9); assay: pull-down
T4 sequence: T1 sequence

[5] = target: T5, GST-AMSH3 (Arabidopsis) (Arabidopsis thaliana) (UniProt Q5PNU3); assay: pull-down
T5 sequence: T2 sequence

Substance	binding [1]	binding [2]	binding [3]	binding [4]	binding [5]
Flag-Mp10 (Myzus persicae)	binds	no binding	–	–	–
His-Mp10 (Myzus persicae)	–	–	binds	binds	binds

These are yes or no findings as the source states them, for the method shown. Binding seen in cells or lysates may run through a third protein. For some assays here: Binding can be weak; no strength is given. Sequences can lack the tags named with a protein.
